Results reported in publication PMC9844198.
These are yes or no findings as the source states them, for the method shown. For part of these data: In cells and extracts the contact can be indirect. Some binding calls cover weakened binding; strength is not graded here. For part of these data: Sequences can lack the tags named with a protein. Each block holds one substance with its values, some of them ahead of it.

By UniProt entry, the sequences of proteins in these tests, tags left out. Where a name states a change or a piece, a line headed by the entry shows the natural chain unless it says otherwise. Chains listed by the source or under a name are the forms on record and can include a tag or linker.
UniProt Q9UIJ5: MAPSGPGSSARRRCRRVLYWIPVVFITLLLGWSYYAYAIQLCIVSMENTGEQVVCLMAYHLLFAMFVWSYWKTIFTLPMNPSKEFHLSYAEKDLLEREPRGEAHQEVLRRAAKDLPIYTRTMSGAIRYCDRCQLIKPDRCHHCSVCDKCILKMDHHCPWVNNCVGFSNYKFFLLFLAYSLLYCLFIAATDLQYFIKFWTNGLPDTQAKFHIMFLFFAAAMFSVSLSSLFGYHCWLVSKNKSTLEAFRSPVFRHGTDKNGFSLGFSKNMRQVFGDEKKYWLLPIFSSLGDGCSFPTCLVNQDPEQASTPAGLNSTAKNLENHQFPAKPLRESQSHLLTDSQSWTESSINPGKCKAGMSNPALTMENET
UniProt Q07065: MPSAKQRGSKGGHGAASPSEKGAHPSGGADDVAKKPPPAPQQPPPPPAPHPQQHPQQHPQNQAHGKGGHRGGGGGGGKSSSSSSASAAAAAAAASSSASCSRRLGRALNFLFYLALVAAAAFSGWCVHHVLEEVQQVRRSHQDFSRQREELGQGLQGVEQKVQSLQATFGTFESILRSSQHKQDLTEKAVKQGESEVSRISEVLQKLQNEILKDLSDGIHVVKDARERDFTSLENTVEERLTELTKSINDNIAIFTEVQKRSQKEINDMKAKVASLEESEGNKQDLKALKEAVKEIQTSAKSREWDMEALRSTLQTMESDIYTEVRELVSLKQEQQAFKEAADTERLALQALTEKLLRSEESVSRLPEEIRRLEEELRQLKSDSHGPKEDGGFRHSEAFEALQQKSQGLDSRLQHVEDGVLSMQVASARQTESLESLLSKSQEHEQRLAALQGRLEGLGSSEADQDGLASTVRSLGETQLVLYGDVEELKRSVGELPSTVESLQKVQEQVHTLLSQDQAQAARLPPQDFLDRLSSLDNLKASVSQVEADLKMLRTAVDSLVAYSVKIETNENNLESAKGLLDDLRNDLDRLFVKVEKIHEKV
CLIMP-63-CC (Q07065, form named): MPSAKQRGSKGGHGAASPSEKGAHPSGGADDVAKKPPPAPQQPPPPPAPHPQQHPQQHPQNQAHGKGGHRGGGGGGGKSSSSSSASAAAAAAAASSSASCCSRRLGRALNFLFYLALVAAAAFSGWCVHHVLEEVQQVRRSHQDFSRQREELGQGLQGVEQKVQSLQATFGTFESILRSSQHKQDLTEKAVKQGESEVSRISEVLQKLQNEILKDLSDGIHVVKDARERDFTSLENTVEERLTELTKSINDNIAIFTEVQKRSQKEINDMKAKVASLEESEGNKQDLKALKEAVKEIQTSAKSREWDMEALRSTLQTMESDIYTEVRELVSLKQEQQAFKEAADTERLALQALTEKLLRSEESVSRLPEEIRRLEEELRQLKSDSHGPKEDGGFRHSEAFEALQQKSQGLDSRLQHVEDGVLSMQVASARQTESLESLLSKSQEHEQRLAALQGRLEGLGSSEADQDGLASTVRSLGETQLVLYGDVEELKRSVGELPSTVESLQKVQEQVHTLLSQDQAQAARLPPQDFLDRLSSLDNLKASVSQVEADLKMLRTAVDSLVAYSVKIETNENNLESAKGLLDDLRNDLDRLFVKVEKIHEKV
UniProt O95372: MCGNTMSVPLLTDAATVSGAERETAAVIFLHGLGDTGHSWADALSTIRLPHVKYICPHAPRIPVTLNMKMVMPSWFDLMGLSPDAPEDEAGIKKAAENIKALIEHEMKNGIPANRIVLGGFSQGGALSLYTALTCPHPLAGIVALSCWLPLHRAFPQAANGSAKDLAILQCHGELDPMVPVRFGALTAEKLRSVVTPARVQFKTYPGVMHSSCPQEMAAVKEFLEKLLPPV

Experiments:
myc-ZDHHC2 [1] = biological target: myc-ZDHHC2 (UniProt Q9UIJ5); assay: co-IP; co-overexpression of CLIMP-63 with ZDHHC2 or ZDHHC6; lysis buffer with 0.5% NP40, immunoprecipitation overnight at 4 °C, Western blot
myc-ZDHHC6 [2] = biological target: T1, myc-ZDHHC6 (UniProt Q9H6R6); assay: as above
T1 sequence: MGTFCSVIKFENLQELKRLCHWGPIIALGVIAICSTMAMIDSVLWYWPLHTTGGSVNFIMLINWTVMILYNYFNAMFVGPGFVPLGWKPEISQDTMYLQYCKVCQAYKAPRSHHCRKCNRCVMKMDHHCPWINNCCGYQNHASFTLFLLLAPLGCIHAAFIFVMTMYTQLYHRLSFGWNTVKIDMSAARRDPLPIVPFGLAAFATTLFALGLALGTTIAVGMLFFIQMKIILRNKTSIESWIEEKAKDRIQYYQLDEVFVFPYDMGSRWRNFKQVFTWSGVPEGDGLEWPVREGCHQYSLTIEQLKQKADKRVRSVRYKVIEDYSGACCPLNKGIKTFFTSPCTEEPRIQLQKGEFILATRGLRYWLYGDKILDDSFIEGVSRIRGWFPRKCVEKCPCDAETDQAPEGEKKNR

[3] = biological target: cytoskeleton-linking membrane protein 63 (CLIMP-63), endogenous (human (endogenous in HeLa and Rpe-1)) (UniProt Q07065); assay: co-IP; endogenous CLIMP-63 and overexpressed APT2-FLAG WT or S122A in Rpe-1 cells; lysis buffer with 0.5% NP40, Western blot
[4] = biological target: cytoskeleton-linking membrane protein 63 (CLIMP-63), endogenous (human (endogenous in HeLa and Rpe-1)) (UniProt Q07065); assay: native gel or EMSA; Blue Native PAGE of samples from cells, Western blot
myc-ZDHHC2 [5] = biological target: myc-ZDHHC2 (UniProt Q9UIJ5); assay: proximity ligation; Duolink-PLA probing endogenous CLIMP-63 in HeLa cells expressing myc-ZDHHC2 or myc-ZDHHC6, or in ZDHHC6 KO cells expressing myc-ZDHHC2; dots per cell area
myc-ZDHHC6 [6] = biological target: T1, myc-ZDHHC6; assay: as above
[7] = biological target: HA-CLIMP-63 C100A (human) (UniProt Q07065); assay: native gel or EMSA; Blue Native PAGE of samples from cells, Western blot
[8] = biological target: HA-CLIMP-63 C100A (human) (UniProt Q07065); assay: co-IP; shCLIMP-63 HeLa cells co-expressing HA-CLIMP-63 and RFP-CLIMP-63 (WT or C100A); with 35S Cys/Met metabolic labelling; Western blot and autoradiography
CLIMP-63-CC (human) = CLIMP-63-CC (human) (UniProt Q07065); assay: native gel or EMSA; Blue Native PAGE of samples from cells, Western blot
HA-CLIMP-63 WT (human) [9] = biological target: HA-CLIMP-63 WT (human) (UniProt Q07065); assay: as above
HA-CLIMP-63 WT (human) [10] = biological target: HA-CLIMP-63 WT (human) (UniProt Q07065); assay: co-IP; shCLIMP-63 HeLa cells co-expressing HA-CLIMP-63 and RFP-CLIMP-63 (WT or C100A); with 35S Cys/Met metabolic labelling; Western blot and autoradiography

binding (myc-ZDHHC2 [1]): binds | binding (myc-ZDHHC6 [2]): binds
Substance: CLIMP-63, co-overexpressed with ZDHHC2 or ZDHHC6 (from UniProt Q07065 1-602)

binding [3]: binds
Substance: APT2-FLAG WT (acyl protein thioesterase 2) (from UniProt O95372 1-231) (enzyme)

binding [4]: binds | binding (myc-ZDHHC2 [5]): binds | binding (myc-ZDHHC6 [6]): binds
Substance: cytoskeleton-linking membrane protein 63 (CLIMP-63), endogenous (from UniProt Q07065 1-602)

binding [7]: binds | binding [8]: binds
Substance: HA-CLIMP-63 C100A (from UniProt Q07065 1-602)

binding (CLIMP-63-CC (human)): binds
Substance: CLIMP-63-CC (from UniProt Q07065 1-602)

binding [3]: binds
Substance: APT2-FLAG S122A (catalytic inactive mutant) (from UniProt O95372 1-231) (enzyme)

binding (HA-CLIMP-63 WT (human) [9]): binds | binding (HA-CLIMP-63 WT (human) [10]): binds
Substance: HA-CLIMP-63 WT (from UniProt Q07065 1-602)
